Out of some 300,000 compounds screened, about 5,400 (1.8%) were called active. The shares of active, inactive and inconclusive entries below differ from those in the screen. Calls follow the shape of the full dose curve; tested in HEK293 cells. Potencies beside an inconclusive call are fits to weak or partial responses and may not hold up.
Test: qHTS for inhibitors of binding or entry into cells for Marburg Virus
Conditions: Marburg virus pseudotyped entry inhibition, cell reporter; activity change, negative = inhibition: at 37.8 µM (top of the series) unless noted
In the case of `COc1ccc(C(=O)/C(=C/N(C)C)S(=O)(=O)c2ccccc2)cc1`, the Potency is reported as inconclusive: 35.5 µM [inhibitor, single point].
In the case of `CCCCNC(=O)CC1Nc2ccccc2NC1=O` (stereo unspecified), the “activity change, negative = inhibition” value is reported as inactive: -2.08%.
With `C#C[C@@H]1C=C[C@H](Oc2ccc(OC)cc2)[C@H](CO)O1` the Potency was inconclusive: 0.075 µM [activator, partial curve, poor fit].
With `COc1ccc(OCC(=O)N2N=C(C(F)F)CC2(O)C(F)F)cc1` (stereo unspecified) the Potency was inconclusive: 3.55 µM [activator, partial curve, poor fit].
For `CN(CCOc1ccc(Br)cc1)C(=O)CNC(=O)c1ccc2ccccc2c1`, the Potency was inconclusive: 35.5 µM [inhibitor, single point].
With `COCCNC(=O)C(c1c[nH]c2ccccc12)N(C(=O)c1snc(C(N)=O)c1N)c1cccc(OC)c1` (stereo unspecified) the Potency was inconclusive: 4.11 µM [inhibitor, partial curve, poor fit].
For `CC(=O)c1c(C)[nH]c(C(=O)C(C)Sc2nnc(NC3CC3)s2)c1C` (stereo unspecified), the Potency was inconclusive: 15.8 µM [inhibitor, partial curve, poor fit].
For `O=S(=O)(c1ccc(F)cc1)N(CCO)CC(O)Cn1c2ccccc2c2ccccc21` (stereo unspecified), the “activity change, negative = inhibition” value was inactive: -26.7%.
For `CC(C(=O)N1CCCC1)N1CCN(S(=O)(=O)c2ccc(OC(F)(F)F)cc2)CC1` (stereo unspecified), the “activity change, negative = inhibition” value was inactive: -3.52%.
For `O=C(O)c1cccc(Nc2nc(-c3ccccc3)nc3ccccc23)c1`, the Potency was inconclusive: 5.62 µM [activator, single point].
For `Cc1cc(Br)ccc1NC(=O)CN(C)C(=O)C1CCN(c2ncnc3sc(C)c(C)c23)CC1`, the Potency was inconclusive: 15.8 µM [inhibitor, single point].
In the case of `CC1CCC/C(=C\Nc2ccc3c(c2)OCO3)C1=O` (stereo unspecified), the “activity change, negative = inhibition” value is reported as inactive: 4.64%.
For `CCCSc1oc(-c2ccco2)nc1S(=O)(=O)c1ccccc1`, the Potency was inconclusive: 4.61 µM [inhibitor, full curve, poor fit].
For `COc1ccc(C(=O)Nc2ccc(Cl)cc2C(=O)N2CCCC(C)C2)cc1` (stereo unspecified), the “activity change, negative = inhibition” value was inactive: -10.2%.
In the case of `CN(c1ccc(OCC(=O)NC2CCC(O)CC2)cc1)S(=O)(=O)c1ccc(Cl)cc1` (stereo unspecified), the “activity change, negative = inhibition” value is reported as inactive: -2.64% [at 46.1 µM].
For `COc1ccccc1N1CCN(C(=O)c2sc3nc(-c4ccc(F)cc4)cn3c2C)CC1`, the “activity change, negative = inhibition” value was inactive: -3.27%.
With `CS(=O)(=O)N(Cc1ccccc1)c1ccc(C(=O)N2CCOCC2)cc1` the Potency was inconclusive: 5.62 µM [activator, single point].
With `O=c1c2ccccc2nc(SCc2cccc(F)c2)n1-c1cccc(S(=O)(=O)N2CCCC2)c1` the Potency was inconclusive: 6.51 µM [inhibitor, full curve].
With `COc1ccc(C(=O)O/N=C(\N)c2ccc(Br)cc2)cc1` the Potency was inconclusive: 35.5 µM [inhibitor, single point].
For `COc1cccc2c(SCC(=O)N/N=C/c3ccc(O)cc3O)cc(C)nc12`, the Potency was inconclusive: 25.1 µM [inhibitor, single point].
With `COc1ccc(NC(=O)CNC(=O)c2nn(-c3ccc(OC)cc3OC)c(=O)c3ccccc23)c(OC)c1` the Potency was inconclusive: 12.6 µM [inhibitor, partial curve, poor fit].
With `C[C@H]1CC[C@H]2C(=O)N(Cc3ccccc3)C[C@H](O)CN2[C@H]1c1cccc(Br)c1` the “activity change, negative = inhibition” value was inactive: -5.33% [at 14.2 µM].
In the case of `COc1cccc(CN(C)C(=O)c2ccc(S(=O)(=O)Nc3ccccc3F)cc2)c1OC`, the “activity change, negative = inhibition” value is reported as inactive: 29.6%.
With `CCOC(=O)c1ccccc1OCc1cc(/C=N/NC(=O)c2cccnc2)ccc1OC` the Potency was inconclusive: 10 µM [inhibitor, partial curve].
With `CC(c1ccco1)N(C(=O)COc1ccc(Cl)cc1Cl)c1ccccn1` (stereo unspecified) the Potency was inconclusive: 29.1 µM [inhibitor, single point].
With `COc1ccc(-c2nnn(CC(=O)N(Cc3cccs3)C(C)C(=O)NCCC(C)C)n2)cc1OC` (stereo unspecified) the Potency was inconclusive: 3.98 µM [inhibitor, partial curve, poor fit].
In the case of `CCN(CC)S(=O)(=O)c1ccc(N/N=C(\C)c2ccncc2)nc1`, the Potency is reported as inconclusive: 35.5 µM [inhibitor, partial curve, poor fit].
For `CC(=O)C1CCC2C3CCC4=CC(=O)C=CC4(C)C3CCC12C` (stereo unspecified), the Potency was inconclusive: 8.91 µM [inhibitor, partial curve, poor fit].
With `COc1ccc(N2CCN(C(=O)Cc3ccc(C)cc3)CC2)cc1` the “activity change, negative = inhibition” value was inactive: 2.31%.
In the case of `CCCOc1cccc(C(=O)N(Cc2sccc2C)C2CCS(=O)(=O)C2)c1` (stereo unspecified), the Potency is reported as inconclusive: 35.5 µM [inhibitor, single point].
With `O=C(c1c(F)cccc1F)N1CCN(c2cccc(C(F)(F)F)c2)CC1` the Potency was inconclusive: 35.5 µM [inhibitor, single point].
For `COc1ccc(NC(=S)N2CCN(S(=O)(=O)c3ccccc3)CC2)cc1`, the Potency was inconclusive: 12.6 µM [activator, partial curve, poor fit].
With `CCn1c(=O)cc(OCC(=O)N2CCN(c3ccc(C)cc3)C(C)C2)c2ccccc21` (stereo unspecified) the Potency was inconclusive: 35.5 µM [inhibitor, single point].
For `CCOC(=O)c1c(C)[nH]c(C(=O)CN2C(=O)NC(CC)(c3ccccc3)C2=O)c1C` (stereo unspecified), the Potency was inconclusive: 1.26 µM [activator, single point].
For `CCC(=O)Nc1ccc2nc(SCCOc3ccc(C)cc3OC)sc2c1`, the Potency was inconclusive: 35.5 µM [inhibitor, partial curve, poor fit].
In the case of `CN(C)S(=O)(=O)c1cccc(NC(=O)CSc2nc3ccccc3[nH]2)c1`, the Potency is reported as inconclusive: 35.5 µM [inhibitor, single point].
For `Cc1ccc(C(=O)CCC(=O)OCC(=O)NNC(=O)c2ccc([N+](=O)[O-])cc2)cc1`, the Potency was inconclusive: 0.1 µM [activator, full curve, poor fit].
With `COCCNC(=O)c1c[nH]c2ccc(S(=O)(=O)N(C)c3ccc(C)c(C)c3)cc2c1=O` the Potency was inconclusive: 20 µM [inhibitor, single point].
For `COc1cc(C(=O)N2CCN(c3ccc(C)cc3C)CC2)cc(OC)c1OC`, the Potency was inconclusive: 1.16 µM [inhibitor, full curve, poor fit].
For `CCN(CC)S(=O)(=O)c1ccc(C(=O)NCCSc2c(-c3ccc(F)cc3)[nH]c3ccccc23)cc1`, the Potency was inconclusive: 35.5 µM [inhibitor, single point].
For `CN(CC(=O)Nc1c(Cl)cccc1Cl)C(=O)CNC(=O)c1ccc2ccccc2c1`, the “activity change, negative = inhibition” value was inactive: 0%.
With `COc1ccc(/C=C/C(=O)NC(C)CCc2ccccc2)cc1OC` (stereo unspecified) the “activity change, negative = inhibition” value was inactive: -2.02%.
With `CC(=O)c1sc(NC(=O)C2CCN(C(=O)c3ccccc3C)CC2)nc1-c1ccccc1` the Potency was inconclusive: 17.8 µM [inhibitor, single point].
With `COc1cc(/C=N/NC(=O)c2ccc(O)cc2)ccc1OCC(=O)N1CC(C)OC(C)C1` (stereo unspecified) the “activity change, negative = inhibition” value was inactive: 0.242% [at 46.1 µM].
In the case of `CCOC(=O)C(=O)Nc1nnc(C2CCCCC2)s1`, the “activity change, negative = inhibition” value is reported as inactive: 0.198% [at 46.1 µM].
In the case of `CCC(C)N(C)C1CCN(C(=S)Nc2cccc(SC)c2)CC1` (stereo unspecified), the Potency is reported as inconclusive: 35.5 µM [inhibitor, partial curve, poor fit].
For `COc1cc(C(=O)NC(C)CCc2ccccc2)cc(OC)c1OC` (stereo unspecified), the “activity change, negative = inhibition” value was inactive: 21.3%.
In the case of `CCc1nc2ccccc2nc1N1CCN(S(=O)(=O)c2ccc(Cl)cc2)CC1`, the Potency is reported as active: 11.2 µM.
In the case of `CCOC(=O)N1CCOCCOCCN(C(=O)OCC)CCOCC1`, the “activity change, negative = inhibition” value is reported as inactive: 6.13% [at 46.1 µM].
With `O=C(NCc1ccc(Cl)cc1)c1ccc(Cn2cc(C(F)(F)F)ccc2=O)cc1` the “activity change, negative = inhibition” value was inactive: 24.8%.
For `O=C(c1ccc2c(c1)OCO2)c1cn(Cc2ccc(Cl)cc2)c2ccc(F)cc2c1=O`, the Potency was inconclusive: 1.26 µM [inhibitor, full curve, poor fit].
In the case of `CC(=O)c1ccc(NC(=O)c2sc3nc(C)c(C)c(C)c3c2N)cc1`, the Potency is reported as inconclusive: 11.2 µM [activator, partial curve, poor fit].
In the case of `CCNC(=O)C(=O)NCC1CCCN1S(=O)(=O)c1cccs1` (stereo unspecified), the Potency is reported as inconclusive: 35.5 µM [activator, partial curve, poor fit].
In the case of `O=C(CN1C(=O)NC(c2ccc(F)cc2)C1=O)NC1CCCCC1` (stereo unspecified), the “activity change, negative = inhibition” value is reported as inactive: 12.4%.
In the case of `COc1cccc2c(C)cc3nnc(SCC(=O)Nc4ccc(C)cc4)n3c12`, the “activity change, negative = inhibition” value is reported as inactive: -8.87% [at 46.1 µM].
In the case of `COc1ccc2c(c1)c(=O)c(S(=O)(=O)c1ccc(F)cc1)cn2Cc1ccccc1Cl`, the “activity change, negative = inhibition” value is reported as inactive: 20.1% [at 46.1 µM].
In the case of `Cc1ccc(S(=O)(=O)NNC(=S)NCC2CCCO2)cc1` (stereo unspecified), the Potency is reported as inconclusive: 3.55 µM [activator, partial curve].
For `O=C1CSC(c2cccc([N+](=O)[O-])c2)N1Cc1ccccc1` (stereo unspecified), the Potency was inconclusive: 14.1 µM [inhibitor, single point].
For `Cc1ccc(S(=O)(=O)N2CCN(c3ccc(S(=O)(=O)N4CCOCC4)cn3)CC2)cc1`, the Potency was inconclusive: 0.398 µM [activator, full curve, poor fit].
With `COc1ccc(CC(=O)NNC(=O)c2ccc(NC(C)=O)cc2)cc1` the Potency was inconclusive: 3.98 µM [activator, partial curve, poor fit].
In the case of `NC(=O)[C@@H]1CCCN1Cc1nc(-c2ccccc2)no1`, the “activity change, negative = inhibition” value is reported as inactive: 7.67% [at 46.1 µM].
With `CCCC(=O)Nc1ccc2oc(-c3ccc(OC)c(Br)c3)nc2c1` the Potency was inconclusive: 4.61 µM [activator, single point].
With `c1ccc(-n2cnnc2SCc2cn3cccnc3n2)cc1` the “activity change, negative = inhibition” value was inactive: 8.82%.
With `CN1CCN(C(=O)c2ccc(-c3cccs3)s2)CC1` the Potency was inconclusive: 1.12 µM [activator, full curve, poor fit].
For `Cc1ccc(-c2cn3cccnc3n2)cc1NC(=O)Nc1ccc(F)cc1`, the Potency was inconclusive: 1.58 µM [activator, partial curve, poor fit].
With `COCCN1CCN(C(=O)c2cc(COc3cncc(Cl)c3)on2)CC1` the Potency was inconclusive: 10 µM [inhibitor, partial curve, poor fit].

Source: PubChem BioAssay AID540276 (National Center for Advancing Translational Sciences (NCATS), 2011)
% is scaled to controls: 0 for no effect and ±100 for the full control effect; potency is read from the fitted curve at half-maximal effect.
